The results in this text go back to publication PMC9186069.

No constants are given. Whether binding was seen depends on the method and setting.

The test concerns the target full-length B. miyamotoi FbpA-R264A-K343A (Borrelia miyamotoi strain FR64b). Description: far-Western, overlay or dot blot; B. burgdorferi B314 whole-cell lysates (2.5 x10^7 cell equivalents) resolved by SDS-PAGE, on PVDF; probed with 20 μg zymogen or active C1r for 1 hour; detected with goat anti-human C1r; only the binder purified.

B1: C1r zymogen (enzyme, UniProt P00736 18-705)
chain: SIPIPQKLFGEVTSPLFPKPYPNNFETTTVITVPTGYRVKLVFQQFDLEPSEGCFYDYVKISADKKSLGRFCGQLGSPLGNPPGKKEFMSQGNKMLLTFHTDFSNEENGTIMFYKGFLAYYQAVDLDECASRSKSGEEDPQPQCQHLCHNYVGGYFCSCRPGYELQEDTHSCQAECSSELYTEASGYISSLEYPRSYPPDLRCNYSIRVERGLTLHLKFLEPFDIDDHQQVHCPYDQLQIYANGKNIGEFCGKQRPPDLDTSSNAVDLLFFTDESGDSRGWKLRYTTEIIKCPQPKTLDEFTIIQNLQPQYQFRDYFIATCKQGYQLIEGNQVLHSFTAVCQDDGTWHRAMPRCKIKDCGQPRNLPNGDFRYTTTMGVNTYKARIQYYCHEPYYKMQTRAGSRESEQGVYTCTAQGIWKNEQKGEKIPRCLPVCGKPVNPVEQRQRIIGGQKAKMGNFPWQVFTNIHGRGGGALLGDRWILTAAHTLYPKEHEAQSNASLDVFLGHTNVEELMKLGNHPIRRVSVHPDYRQDESYNFEGDIALLELENSVTLGPNLLPICLPDNDTFYDLGLMGYVSGFGVMEEKIAHDLRFVRLPVANPQACENWLRGKNRMDVFSQNMFCAGHPSLKQDACQGDSGGVFAVRDPNTDRWVATGIVSWGIGCSRGYGFYTKVLNYVDWIKKEMEEED
For B1, the binding result is on record as “no binding”.
